According to patent US6228382A, “Microbiocidal mixtures” (ETC C.V., priority 1996, dated 2001):
At least one structure is not confirmed: it was looked up by name or label, or the drawing left a doubt.

Experiments:
[1] = tested on: Aspergillus niger and Penicilium funiculosum; experiment: Long-term protection of a house paint against colonization by fungi; format: cell-based
[2] = Determination of the relative leaching rate from house paint (watering with tap water, HPLC of methanol extracts); format: physicochemical; conditions: for suitability of fungicide/algicide ratio for comprehensive preservation of the film: after stress by leaching; for residual concentration, of the residual Mctt concentration: after watering for 96 hours
From the text: First, 128 parts by weight (PW) of water were initially charged. 11 PW of a 10% strength by weight solution of Calgon N (sodium triphosphate) were subsequently stirred into the water. Thereafter, 2 PW of Tylose MHB 6000 (from Hoechst AG), 3 PW of Additol XW 330 (from Hoechst AG), 4 PW of Agitan 260 (from Munzing-Chemie, Heilbronn), 226 PW of titanium dioxide (for example from Kronos 2065), 375 PW of MOWILITH® DM 771 (about 50%) (from. HOECHST), 84 PW of Omyacarb 5 (from Omya), 84 PW of Micro Mica W1, 38 PW of Micro Talc AT 1 and 20 PW of China Clay D were added and homogenized. 11 PW of white spirit, 8 PW of butyl diglycol acetate and 4 PW of MERGAL® K 9 N (Riedel de Haen) were stirred into the resulting mixture. The pH of the resulting house paint was 8.8.
The preservatives listed in Table 2 were homogeneously dispersed into the resulting house paint.
The resulting paint sample was in each case drawn out to a film of approximately 150 g/m^2 on paper, using a knife. The paint sample prepared in this manner was subsequently dried at a temperature of 30° C. for 72 hours.
Test samples having a diameter of 5.5 cm were punched out from the paint sample. To simulate leaching by rainwater, these paint-coated test samples were watered with tap water (46.7 1/day/m^2 of paint). Test samples were taken in each case after 24 hours and air-dried for 72 hours.
To determine the microbicide concentration, in each case one specimen was extracted in methanol. The methanol extracts were analysed by HPLC. […]
column: RP-phenyl (Hypersil 5 μ) mobile phase: gradient water/acetonitrile
UV-Detector: 220 nm and 200 nm
Since in each analysis, the substances listed in Table 3 were measured as the area under the HPLC signal, it is possible to relate the leaching rates directly to the known active compounds OITZ and Mctt.

[3] = after watering / exposure to the weather

Row | Structure (SMILES) | protection against colonization by fungi (in words) ([1]; no stress caused by the weather (no watering)) | protection against colonization by fungi (in words) [1, 3] | HPLC area ([2]; 0 h watering) | HPLC relative area ([2]; 0 h watering) | residual concentration, relative to the residual concentration of Mctt ([2]; 0 h watering) | HPLC area ([2]; 24 h watering) | HPLC relative area ([2]; 24 h watering) | residual concentration, relative to the residual concentration of Mctt ([2]; 24 h watering) | HPLC area ([2]; 48 h watering) | HPLC relative area ([2]; 48 h watering) | residual concentration, relative to the residual concentration of Mctt ([2]; 48 h watering) | HPLC area ([2]; 72 h watering) | HPLC relative area ([2]; 72 h watering) | residual concentration, relative to the residual concentration of Mctt ([2]; 72 h watering) | HPLC area ([2]; 96 h watering) | HPLC relative area ([2]; 96 h watering) | residual concentration, relative to the residual concentration of Mctt ([2]; 96 h watering) | suitability of fungicide/algicide ratio for comprehensive preservation of the film ([2]; 96 h watering) | residual concentration, of the residual Mctt concentration [2]
1 | CCCCCCCCCCCCn1sccc1=O [dodecyl-ITZ, 2-n-dodecylisothiazolin-3-one, reference compound] | not sufficiently active in the paint |  |  |  |  |  |  |  |  |  |  |  |  |  |  |  |  |  | 
2 | CCCCCCCCCCn1sccc1=O [DITZ, 2-n-decyl-isothiazolin-3-one] |  | keep the paint surface predominantly free from colonization | 1,226.1 arbitrary units | 1 | 1.000 | 1,087.9 arbitrary units | 0.886 | 1.077 | 1,094.1 arbitrary units | 0.892 | 1.065 | 897.1 arbitrary units | 0.731 | 1.032 | 645.7 arbitrary units | 0.526 | 0.919 | still suitable for a comprehensive preservation of the film | 91.9%
3 | CCCCCCCCCn1sccc1=O [NITZ, 2-n-nonylisothiazolin-3-one] |  | keep the paint surface predominantly free from colonization | 1,015.6 arbitrary units | 1 | 1.000 | 647.7 arbitrary units | 0.637 | 0.774 | 539.3 arbitrary units | 0.531 | 0.634 | 327.8 arbitrary units | 0.322 | 0.455 | 151.3 arbitrary units | 0.149 | 0.260 | still suitable for a comprehensive preservation of the film | 26%
